# According to the supplement of paper PMC8728848:
# The other results are listed elsewhere or left out.
# B1: B3GalT2 (Rattus norvegicus) (protein)
# chain: LMLQWRRRHCCFAKMSWNAKRSLFRTHLMGVLSLVFLFAMFLFFNHHDWLPGRPGFKENPVTYTFRGFRSTKTETNQSSLRNIWKEVVPQTLRPQTATNSNNTELSPQGVTGLENTLSANGSIYNEKGTGHPNSYHFKYIINEPEKCQEKSPFLILLIAAEPGQIEARRAIRQTWGNETLAPGIQITRIFLLGISIKLNGYLQHAIQEESIQYHDIIQQEYLDTYYNLTIKTLMGMNWVATYCPHTPYVMKTDSDMFVNTEYLIHKLLKPDLPPRHNYFTGYLMRGYAPNRNKDSKWYMPPDLYPSERYPVFCSGTGYVFSGDLAEKIFKVSLGIRRLHLEDVYVGICLAKLRVDPVPPPNEFVFNHWRVSYSSCKYSHLITSHQFQPSELIKYWNHLQQNKHNACVNAAKEKAGRYRHRKLH
# Key:
# Assay in all cases: glycan array binding signal (z-score within array); higher = stronger binding
# Settings in all cases: glycan notation: IUPAC condensed, linker removed
# Fuc(a1-3)GlcNAc = target: Fuc(a1-3)GlcNAc
# Method in brief: (§1)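 Glycan array data were curated from 3228 arrays in the Consortium for Functional Glycomics database and kept only where the protein sequence was available. Glycan names were converted to IUPAC-condensed notation, and columns mapping to the same glycan were averaged. The binding signal is a within-array Z-score, averaged across arrays of the same protein sequence at different concentrations or buffers and across linkers. Negative Z-scores can be read as non-binding.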
# [1] = target: Fuc(a1-3)[Gal(b1-4)]Glc6S
# Method in brief: as §1
# [2] = target: Fuc(a1-3)[Gal(b1-4)]GlcNAc
# Method in brief: as §1
# [3] = target: Fuc(a1-3)[Gal(b1-4)]GlcNAc(b1-2)Man
# Method in brief: as §1
# [4] = target: Fuc(a1-3)[Gal(b1-4)]GlcNAc(b1-2)Man(a1-3)[Fuc(a1-3)[Gal(b1-4)]GlcNAc(b1-2)Man(a1-6)]Man(b1-4)GlcNAc(b1-4)GlcNAc
# Method in brief: as §1
# [5] = target: Fuc(a1-3)[Gal(b1-4)]GlcNAc(b1-2)Man(a1-3)[Fuc(a1-3)[Gal(b1-4)]GlcNAc(b1-2)Man(a1-6)]Man(b1-4)GlcNAc(b1-4)[Fuc(a1-6)]GlcNAc
# Method in brief: as §1
# [6] = target: Fuc(a1-3)[Gal(b1-4)]GlcNAc(b1-3)Gal(b1-3)[Fuc(a1-4)]GlcNAc
# Method in brief: as §1
# [7] = target: Fuc(a1-3)[Gal(b1-4)]GlcNAc(b1-3)Gal(b1-4)[Fuc(a1-3)]GlcNAc
# Method in brief: as §1
# [8] = target: Fuc(a1-3)[Gal(b1-4)]GlcNAc(b1-3)Gal(b1-4)[Fuc(a1-3)]GlcNAc(b1-3)Gal(b1-4)[Fuc(a1-3)]GlcNAc
# Method in brief: as §1
# [9] = target: Fuc(a1-3)[Gal(b1-4)]GlcNAc(b1-3)GalNAc
# Method in brief: as §1
# [10] = target: Fuc(a1-3)[Gal(b1-4)]GlcNAc(b1-6)GalNAc
# Method in brief: as §1
# [11] = target: Fuc(a1-3)[Gal(b1-4)]GlcNAc(b1-6)[Gal(b1-3)GlcNAc(b1-3)]Gal(b1-4)Glc
# Method in brief: as §1
# [12] = target: Fuc(a1-3)[Gal(b1-4)]GlcNAc6S
# Method in brief: as §1
# [13] = target: Fuc(a1-3)[Gal3S(b1-4)]Glc
# Method in brief: as §1
# [14] = target: Fuc(a1-3)[Gal3S(b1-4)]GlcNAc
# Method in brief: as §1
# [15] = target: Fuc(a1-3)[Gal3S(b1-4)]GlcNAc6S
# Method in brief: as §1
# [16] = target: Fuc(a1-3)[GalNAc(b1-4)]GlcNAc
# Method in brief: as §1
# [17] = target: Fuc(a1-3)[GalNAc(b1-4)]GlcNAc6S
# Method in brief: as §1
# Fuc(a1-4)GlcNAc = target: Fuc(a1-4)GlcNAc
# Method in brief: as §1
# Fuc(b1-3)GlcNAc = target: Fuc(b1-3)GlcNAc
# Method in brief: as §1
# Gal(a1-2)Gal = target: Gal(a1-2)Gal
# Method in brief: as §1
# Gal(a1-3)Gal = target: Gal(a1-3)Gal
# Method in brief: as §1
# Gal(a1-3)Gal(b1-3)GlcNAc = target: Gal(a1-3)Gal(b1-3)GlcNAc
# Method in brief: as §1
# [18] = target: Gal(a1-3)Gal(b1-3)GlcNAc(b1-2)Man
# Method in brief: as §1
# [19] = target: Gal(a1-3)Gal(b1-3)GlcNAc(b1-2)Man(a1-3)[Gal(a1-3)Gal(b1-3)GlcNAc(b1-2)Man(a1-6)]Man(b1-4)GlcNAc(b1-4)GlcNAc
# Method in brief: as §1
# [20] = target: Gal(a1-3)Gal(b1-3)GlcNAc(b1-3)GalNAc
# Method in brief: as §1
# [21] = target: Gal(a1-3)Gal(b1-3)GlcNAc(b1-6)GalNAc
# Method in brief: as §1
# [22] = target: Gal(a1-3)Gal(b1-3)[Fuc(a1-4)]GlcNAc(b1-2)Man(a1-3)[Gal(a1-3)Gal(b1-3)[Fuc(a1-4)]GlcNAc(b1-2)Man(a1-6)]Man(b1-4)GlcNAc(b1-4)GlcNAc
# Method in brief: as §1
# Gal(a1-3)Gal(b1-4)Glc = target: Gal(a1-3)Gal(b1-4)Glc
# Method in brief: as §1
# Gal(a1-3)Gal(b1-4)GlcNAc = target: Gal(a1-3)Gal(b1-4)GlcNAc
# Method in brief: as §1
# [23] = target: Gal(a1-3)Gal(b1-4)GlcNAc(b1-2)Man
# Method in brief: as §1
# [24] = target: Gal(a1-3)Gal(b1-4)GlcNAc(b1-2)Man(a1-3)[Gal(a1-3)Gal(b1-4)GlcNAc(b1-2)Man(a1-6)]Man(b1-4)GlcNAc(b1-4)GlcNAc
# Method in brief: as §1
# [25] = target: Gal(a1-3)Gal(b1-4)GlcNAc(b1-3)GalNAc
# Method in brief: as §1
# [26] = target: Gal(a1-3)Gal(b1-4)GlcNAc(b1-6)GalNAc
# Method in brief: as §1
# [27] = target: Gal(a1-3)Gal(b1-4)[Fuc(a1-3)]GlcNAc
# Method in brief: as §1
# [28] = target: Gal(a1-3)Gal(b1-4)[Fuc(a1-3)]GlcNAc(b1-2)Man(a1-3)[Gal(a1-3)Gal(b1-4)[Fuc(a1-3)]GlcNAc(b1-2)Man(a1-6)]Man(b1-4)GlcNAc(b1-4)GlcNAc
# Method in brief: as §1
# Gal(a1-3)GalNAc = target: Gal(a1-3)GalNAc
# Method in brief: as §1
binder,measurement,setting,value
B1,glycan array binding signal (z-score),Fuc(a1-3)GlcNAc,-0.098
same,glycan array binding signal (z-score),[1],0.511
same,glycan array binding signal (z-score),[2],0.408
same,glycan array binding signal (z-score),[3],-0.868
same,glycan array binding signal (z-score),[4],-0.684
same,glycan array binding signal (z-score),[5],-0.798
same,glycan array binding signal (z-score),[6],0.846
same,glycan array binding signal (z-score),[7],0.853
same,glycan array binding signal (z-score),[8],-0.328
same,glycan array binding signal (z-score),[9],0.028
same,glycan array binding signal (z-score),[10],-0.729
same,glycan array binding signal (z-score),[11],-0.878
same,glycan array binding signal (z-score),[12],1.85
same,glycan array binding signal (z-score),[13],0.499
same,glycan array binding signal (z-score),[14],0.537
same,glycan array binding signal (z-score),[15],0.714
same,glycan array binding signal (z-score),[16],0.444
same,glycan array binding signal (z-score),[17],2.41
same,glycan array binding signal (z-score),Fuc(a1-4)GlcNAc,-0.85
same,glycan array binding signal (z-score),Fuc(b1-3)GlcNAc,-0.867
same,glycan array binding signal (z-score),Gal(a1-2)Gal,-0.737
same,glycan array binding signal (z-score),Gal(a1-3)Gal,-0.023
same,glycan array binding signal (z-score),Gal(a1-3)Gal(b1-3)GlcNAc,-0.848
same,glycan array binding signal (z-score),[18],0.596
same,glycan array binding signal (z-score),[19],-0.735
same,glycan array binding signal (z-score),[20],-0.17
same,glycan array binding signal (z-score),[21],-0.65
same,glycan array binding signal (z-score),[22],-0.703
same,glycan array binding signal (z-score),Gal(a1-3)Gal(b1-4)Glc,-0.756
same,glycan array binding signal (z-score),Gal(a1-3)Gal(b1-4)GlcNAc,-0.174
same,glycan array binding signal (z-score),[23],-0.684
same,glycan array binding signal (z-score),[24],-0.478
same,glycan array binding signal (z-score),[25],0.118
same,glycan array binding signal (z-score),[26],-0.997
same,glycan array binding signal (z-score),[27],-0.643
same,glycan array binding signal (z-score),[28],-1.16
same,glycan array binding signal (z-score),Gal(a1-3)GalNAc,-0.362

# Retrieved one by one from the entries so far (three):
binder,measurement,setting,value
B1,glycan array binding signal (z-score),[14],0.537
same,glycan array binding signal (z-score),Gal(a1-3)Gal(b1-4)GlcNAc,-0.174
same,glycan array binding signal (z-score),Fuc(a1-4)GlcNAc,-0.85
